{"source": "patent US20260193295A1", "about": "“CILAGICIN COMPOUNDS AND METHODS OF USE THEREOF” (priority 2022, published 2026)", "origin": "cited, not measured here", "system": "vancomycin-resistant Enterococci clinical isolates", "conditions": "cited from earlier work", "key": {"[1]": {"conditions": "Enterococci clinical isolate code 781"}, "[2]": {"conditions": "Enterococci clinical isolate code 782"}, "[3]": {"conditions": "Enterococci clinical isolate code 783"}, "[4]": {"conditions": "Enterococci clinical isolate code 784"}, "[5]": {"conditions": "Enterococci clinical isolate code 785"}, "[6]": {"conditions": "Enterococci clinical isolate code 786"}, "[7]": {"conditions": "Enterococci clinical isolate code 787"}, "[8]": {"conditions": "Enterococci clinical isolate code 788"}, "[9]": {"conditions": "Enterococci clinical isolate code 789"}, "[10]": {"conditions": "Enterococci clinical isolate code 790"}, "[11]": {"conditions": "Enterococci clinical isolate code 791"}, "[12]": {"conditions": "Enterococci clinical isolate code 792"}, "[13]": {"conditions": "Enterococci clinical isolate code 793"}, "[14]": {"conditions": "Enterococci clinical isolate code 794"}, "[15]": {"conditions": "Enterococci clinical isolate code 795"}, "[16]": {"conditions": "Enterococci clinical isolate code 796"}, "[17]": {"conditions": "Enterococci clinical isolate code 797"}, "[18]": {"conditions": "Enterococci clinical isolate code 798"}, "[19]": {"conditions": "Enterococci clinical isolate code 799"}, "[20]": {"conditions": "Enterococci clinical isolate code 800"}, "[21]": {"conditions": "Enterococci clinical isolate code 801"}, "[22]": {"conditions": "Enterococci clinical isolate code 802"}, "[23]": {"conditions": "Enterococci clinical isolate code 803"}, "[24]": {"conditions": "Enterococci clinical isolate code 804"}, "[25]": {"conditions": "Enterococci clinical isolate code 805"}, "[26]": {"conditions": "Enterococci clinical isolate code 806"}, "[27]": {"conditions": "Enterococci clinical isolate code 807"}, "[28]": {"conditions": "Enterococci clinical isolate code 808"}, "[29]": {"conditions": "Enterococci clinical isolate code 809"}, "[30]": {"conditions": "Enterococci clinical isolate code 810"}}, "note": "Like-named read-outs stand apart in the source and are kept apart here. At least one compound was matched to its structure with a doubt left."}
{"compound": "C[C@H]1c2cccc(O)c2C(=O)C2=C(O)[C@]3(O)C(=O)C(C(N)=O)=C(O)[C@@H](N(C)C)[C@@H]3[C@@H](O)[C@@H]21", "note": "[Doxycycline]", "values": [{"measurement": "MIC", "setting": "[1]", "value": 8, "unit": "µg/mL"}, {"measurement": "MIC", "setting": "[2]", "value": "≤1", "unit": "µg/mL"}, {"measurement": "MIC", "setting": "[3]", "value": 16, "unit": "µg/mL"}, {"measurement": "MIC", "setting": "[4]", "value": "≤1", "unit": "µg/mL"}, {"measurement": "MIC", "setting": "[5]", "value": 8, "unit": "µg/mL"}, {"measurement": "MIC", "setting": "[6]", "value": "≤1", "unit": "µg/mL"}, {"measurement": "MIC", "setting": "[7]", "value": 32, "unit": "µg/mL"}, {"measurement": "MIC", "setting": "[8]", "value": "≤1", "unit": "µg/mL"}, {"measurement": "MIC", "setting": "[9]", "value": "≤1", "unit": "µg/mL"}, {"measurement": "MIC", "setting": "[10]", "value": "≤1", "unit": "µg/mL"}, {"measurement": "MIC", "setting": "[11]", "value": 4, "unit": "µg/mL"}, {"measurement": "MIC", "setting": "[12]", "value": "≤1", "unit": "µg/mL"}, {"measurement": "MIC", "setting": "[13]", "value": "≤1", "unit": "µg/mL"}, {"measurement": "MIC", "setting": "[14]", "value": "≤1", "unit": "µg/mL"}, {"measurement": "MIC", "setting": "[15]", "value": 4, "unit": "µg/mL"}, {"measurement": "MIC", "setting": "[16]", "value": 4, "unit": "µg/mL"}, {"measurement": "MIC", "setting": "[17]", "value": "≤1", "unit": "µg/mL"}, {"measurement": "MIC", "setting": "[18]", "value": "≤1", "unit": "µg/mL"}, {"measurement": "MIC", "setting": "[19]", "value": 16, "unit": "µg/mL"}, {"measurement": "MIC", "setting": "[20]", "value": "≤1", "unit": "µg/mL"}, {"measurement": "MIC", "setting": "[21]", "value": "≤1", "unit": "µg/mL"}, {"measurement": "MIC", "setting": "[22]", "value": 16, "unit": "µg/mL"}, {"measurement": "MIC", "setting": "[23]", "value": "≤1", "unit": "µg/mL"}, {"measurement": "MIC", "setting": "[24]", "value": 16, "unit": "µg/mL"}, {"measurement": "MIC", "setting": "[25]", "value": "≤1", "unit": "µg/mL"}, {"measurement": "MIC", "setting": "[26]", "value": "≤1", "unit": "µg/mL"}, {"measurement": "MIC", "setting": "[27]", "value": 4, "unit": "µg/mL"}, {"measurement": "MIC", "setting": "[28]", "value": "≤1", "unit": "µg/mL"}, {"measurement": "MIC", "setting": "[29]", "value": "≤1", "unit": "µg/mL"}, {"measurement": "MIC", "setting": "[30]", "value": 16, "unit": "µg/mL"}]}
{"compound": "C[C@H]1COc2c(N3CCN(C)CC3)c(F)cc3c(=O)c(C(=O)O)cn1c23", "note": "[Levofloxacin]", "values": [{"measurement": "MIC", "setting": "[1]", "value": 2, "unit": "µg/mL"}, {"measurement": "MIC", "setting": "[2]", "value": 1, "unit": "µg/mL"}, {"measurement": "MIC", "setting": "[3]", "value": 4, "unit": "µg/mL"}, {"measurement": "MIC", "setting": "[4]", "value": 2, "unit": "µg/mL"}, {"measurement": "MIC", "setting": "[5]", "value": 1, "unit": "µg/mL"}, {"measurement": "MIC", "setting": "[6]", "value": 0.5, "unit": "µg/mL"}, {"measurement": "MIC", "setting": "[7]", "value": 2, "unit": "µg/mL"}, {"measurement": "MIC", "setting": "[8]", "value": 2, "unit": "µg/mL"}, {"measurement": "MIC", "setting": "[9]", "value": 4, "unit": "µg/mL"}, {"measurement": "MIC", "setting": "[10]", "value": ">8", "unit": "µg/mL"}, {"measurement": "MIC", "setting": "[11]", "value": 1, "unit": "µg/mL"}, {"measurement": "MIC", "setting": "[12]", "value": ">8", "unit": "µg/mL"}, {"measurement": "MIC", "setting": "[13]", "value": 1, "unit": "µg/mL"}, {"measurement": "MIC", "setting": "[14]", "value": ">8", "unit": "µg/mL"}, {"measurement": "MIC", "setting": "[15]", "value": 0.5, "unit": "µg/mL"}, {"measurement": "MIC", "setting": "[16]", "value": 2, "unit": "µg/mL"}, {"measurement": "MIC", "setting": "[17]", "value": 2, "unit": "µg/mL"}, {"measurement": "MIC", "setting": "[18]", "value": 4, "unit": "µg/mL"}, {"measurement": "MIC", "setting": "[19]", "value": 1, "unit": "µg/mL"}, {"measurement": "MIC", "setting": "[20]", "value": 0.5, "unit": "µg/mL"}, {"measurement": "MIC", "setting": "[21]", "value": 2, "unit": "µg/mL"}, {"measurement": "MIC", "setting": "[22]", "value": 2, "unit": "µg/mL"}, {"measurement": "MIC", "setting": "[23]", "value": 4, "unit": "µg/mL"}, {"measurement": "MIC", "setting": "[24]", "value": 1, "unit": "µg/mL"}, {"measurement": "MIC", "setting": "[25]", "value": 1, "unit": "µg/mL"}, {"measurement": "MIC", "setting": "[26]", "value": 2, "unit": "µg/mL"}, {"measurement": "MIC", "setting": "[27]", "value": 8, "unit": "µg/mL"}, {"measurement": "MIC", "setting": "[28]", "value": 2, "unit": "µg/mL"}, {"measurement": "MIC", "setting": "[29]", "value": ">8", "unit": "µg/mL"}, {"measurement": "MIC", "setting": "[30]", "value": 1, "unit": "µg/mL"}]}
